In PubChem BioAssay AID540276 (National Center for Advancing Translational Sciences (NCATS), 2011):
Where “and” joins values, the source holds several entries; their conditions need not be identical. Equal values may be shown once. In all, about 300,000 compounds went through this assay and about 5,400 (1.8%) were called active. Inconclusive means that the source gave no clear call. Such entries were picked first, then a sample of the others. Calls come from the whole dose curve; tested in HEK293 cells. A potency beside an inconclusive call is a rough fit, not a confirmed value.

Experiment: qHTS for inhibitors of binding or entry into cells for Marburg Virus
Settings: Marburg virus pseudotyped entry inhibition, cell reporter; activity change, negative = inhibition: at 37.8 µM (top of the series) unless noted
% is set by controls: 0 for no effect and ±100 for the full control effect; potency is the fitted concentration of half-maximal effect.

SMILES | Potency | activity change, negative = inhibition
O=[N+]([O-])c1ccccc1S(=O)(=O)N1CCN(CC2CC=CCC2)CC1 (stereo not drawn) | inconclusive: 2.82 µM [inhibitor, partial curve, poor fit] | 
COCCCNC(=S)N1CCC(C(=O)c2ccc(Cl)cc2)CC1 | inconclusive: 15.8 µM [inhibitor, single point] | 
CS(=O)(=O)Nc1ccc(C(=O)NCCC2=CCCCC2)cc1 | inconclusive: 20.6 µM [activator, partial curve, poor fit] | 
COc1ccc(-c2nc3ccccc3s2)cc1NC(=O)COc1cccc(C)c1 |  | inactive: 19.7% [at 46.1 µM]
O=C(CN1CCN(c2ccccn2)CC1)N1c2ccccc2Sc2ccc(C(F)(F)F)cc21 | inactive and inconclusive: 20.6 µM [inhibitor, single point] | 
CCC1(C)Cc2ccccc2-c2nc(NCCO)n(-c3ccc(C)cc3)c(=O)c21 (stereo not drawn) | inconclusive: 35.5 µM [inhibitor, single point] | 
NS(=O)(=O)c1ccc(CCNC(=O)C(=O)c2c[nH]c3ccccc23)cc1 | inconclusive: 6.31 µM [inhibitor, single point] | 
COc1ccc(-n2c(=O)c(CCC(=O)N(C)Cc3cccs3)nc3ccccc32)cc1 | inconclusive: 28.2 µM [inhibitor, partial curve, poor fit] | 
CC1CCN(c2ccc(C(=O)NCc3cccs3)cn2)CC1 |  | inactive: 16.1%
CCCn1c(NC(=O)c2ccc(Br)cc2)nc2ccccc21 |  | inactive: -9.4%
CN(C(=O)C1CCOC1)c1nnc(-c2ccncc2)s1 (stereo not drawn) | inconclusive: 2.51 µM [activator, partial curve, poor fit] | 
Cc1cccc2cc3c(N)c(C(=O)N4CCOCC4)sc3nc12 | inconclusive: 0.199 µM [inhibitor, full curve, poor fit] | 
C=CCOc1ccc(CNc2ccc3[nH]c(=O)[nH]c3c2)cc1OCC | inconclusive: 35.5 µM [inhibitor, partial curve, poor fit] | 
COc1ccccc1CCNC(=O)c1cc(-c2ccccn2)nc2ccccc12 |  | inactive: -32%
Cc1cc2nc(SCCOC(=O)Nc3ccccc3)nc(C)c2cc1C | inconclusive: 35.5 µM [inhibitor, single point] | 
O=C(c1ccc(OC2CCN(CCc3ccccc3)CC2)cc1)N1CCCC1 | inconclusive: 35.5 µM [inhibitor, single point] | 
CCN(CCCNC(=O)c1cc(Nc2ccc(OC)cc2OC)nc2ccccc12)c1cccc(C)c1 | inconclusive: 10 µM [inhibitor, partial curve, poor fit] | 
CSc1ccc(/C=C/c2cc(=O)c3ccccc3[nH]2)cc1 | inconclusive: 0.316 µM [activator, partial curve, poor fit] | 

As entered above.
Entry of O=[N+]([O-])c1ccccc1S(=O)(=O)N1CCN(CC2CC=CCC2)CC1 (stereo not drawn) under Potency: inconclusive: 2.82 µM [inhibitor, partial curve, poor fit]
Entry of O=C(CN1CCN(c2ccccn2)CC1)N1c2ccccc2Sc2ccc(C(F)(F)F)cc21 under Potency: inactive and inconclusive: 20.6 µM [inhibitor, single point]
